Some of these results come from one statement about several compounds together. At least one structure is not confirmed: it was looked up by name or label, or the drawing left a doubt.
Assay: Encapsulation of curcumin in prodrug hydrogels
Type: physicochemical

SMILES | concentration of curcumin encapsulated in hydrogel
CC(=O)Nc1ccc(OC(=O)CCCCCCC(=O)O)cc1 [Apn-7-COOH] | up to 0.5 mmol
CC(=O)Nc1ccc(OC(=O)CCCCCCC(=O)Oc2ccc(NC(C)=O)cc2)cc1 [Apn-8-Apn] | up to 0.5 mmol

— patent publication US11458153B2, “Drug delivery composition comprising a self-assembled gelator” (The Brigham and Women's Hospital, Inc., priority 2008, dated 2022)
